Test results: PMC7694386

Amino acid sequences for entries named in this document (tags omitted).
UniProt P52294: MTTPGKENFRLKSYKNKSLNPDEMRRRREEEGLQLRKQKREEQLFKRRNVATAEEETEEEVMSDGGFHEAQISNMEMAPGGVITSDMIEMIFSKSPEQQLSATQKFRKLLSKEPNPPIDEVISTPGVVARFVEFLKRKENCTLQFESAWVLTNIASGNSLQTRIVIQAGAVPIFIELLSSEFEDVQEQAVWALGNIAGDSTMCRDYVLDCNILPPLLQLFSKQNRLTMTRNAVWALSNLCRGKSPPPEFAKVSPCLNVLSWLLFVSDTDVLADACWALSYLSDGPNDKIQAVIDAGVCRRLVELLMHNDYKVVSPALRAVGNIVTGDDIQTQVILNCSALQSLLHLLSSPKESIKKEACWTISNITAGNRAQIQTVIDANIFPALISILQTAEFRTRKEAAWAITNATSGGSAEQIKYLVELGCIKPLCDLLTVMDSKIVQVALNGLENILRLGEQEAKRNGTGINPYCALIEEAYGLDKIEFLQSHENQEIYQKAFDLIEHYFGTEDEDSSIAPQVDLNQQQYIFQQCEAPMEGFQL
UniProt P54727: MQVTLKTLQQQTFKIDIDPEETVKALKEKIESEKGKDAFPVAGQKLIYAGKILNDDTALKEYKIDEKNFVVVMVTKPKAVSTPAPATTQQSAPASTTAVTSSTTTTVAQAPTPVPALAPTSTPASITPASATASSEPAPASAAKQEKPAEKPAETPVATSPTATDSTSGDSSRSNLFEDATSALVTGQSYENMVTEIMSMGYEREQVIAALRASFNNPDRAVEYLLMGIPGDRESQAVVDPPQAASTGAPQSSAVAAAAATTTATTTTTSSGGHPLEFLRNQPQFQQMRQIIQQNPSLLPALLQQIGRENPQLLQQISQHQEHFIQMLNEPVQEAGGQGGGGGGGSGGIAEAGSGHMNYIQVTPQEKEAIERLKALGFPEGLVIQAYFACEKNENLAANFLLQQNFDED
UniProt Q04206: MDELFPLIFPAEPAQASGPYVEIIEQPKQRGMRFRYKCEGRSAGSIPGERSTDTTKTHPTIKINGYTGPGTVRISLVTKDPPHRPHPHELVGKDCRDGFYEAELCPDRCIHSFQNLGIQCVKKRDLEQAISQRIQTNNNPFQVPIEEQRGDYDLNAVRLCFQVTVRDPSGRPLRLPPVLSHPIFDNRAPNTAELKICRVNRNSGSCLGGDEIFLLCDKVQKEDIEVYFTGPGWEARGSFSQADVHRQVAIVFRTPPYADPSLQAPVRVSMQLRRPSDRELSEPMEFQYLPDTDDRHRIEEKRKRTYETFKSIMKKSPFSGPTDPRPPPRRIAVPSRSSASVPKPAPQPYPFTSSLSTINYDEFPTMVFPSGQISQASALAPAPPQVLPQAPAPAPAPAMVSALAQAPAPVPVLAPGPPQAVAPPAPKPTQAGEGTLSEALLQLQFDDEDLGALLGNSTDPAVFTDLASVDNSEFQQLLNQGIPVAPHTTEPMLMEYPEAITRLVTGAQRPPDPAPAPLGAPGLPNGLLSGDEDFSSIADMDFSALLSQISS
UniProt Q92598: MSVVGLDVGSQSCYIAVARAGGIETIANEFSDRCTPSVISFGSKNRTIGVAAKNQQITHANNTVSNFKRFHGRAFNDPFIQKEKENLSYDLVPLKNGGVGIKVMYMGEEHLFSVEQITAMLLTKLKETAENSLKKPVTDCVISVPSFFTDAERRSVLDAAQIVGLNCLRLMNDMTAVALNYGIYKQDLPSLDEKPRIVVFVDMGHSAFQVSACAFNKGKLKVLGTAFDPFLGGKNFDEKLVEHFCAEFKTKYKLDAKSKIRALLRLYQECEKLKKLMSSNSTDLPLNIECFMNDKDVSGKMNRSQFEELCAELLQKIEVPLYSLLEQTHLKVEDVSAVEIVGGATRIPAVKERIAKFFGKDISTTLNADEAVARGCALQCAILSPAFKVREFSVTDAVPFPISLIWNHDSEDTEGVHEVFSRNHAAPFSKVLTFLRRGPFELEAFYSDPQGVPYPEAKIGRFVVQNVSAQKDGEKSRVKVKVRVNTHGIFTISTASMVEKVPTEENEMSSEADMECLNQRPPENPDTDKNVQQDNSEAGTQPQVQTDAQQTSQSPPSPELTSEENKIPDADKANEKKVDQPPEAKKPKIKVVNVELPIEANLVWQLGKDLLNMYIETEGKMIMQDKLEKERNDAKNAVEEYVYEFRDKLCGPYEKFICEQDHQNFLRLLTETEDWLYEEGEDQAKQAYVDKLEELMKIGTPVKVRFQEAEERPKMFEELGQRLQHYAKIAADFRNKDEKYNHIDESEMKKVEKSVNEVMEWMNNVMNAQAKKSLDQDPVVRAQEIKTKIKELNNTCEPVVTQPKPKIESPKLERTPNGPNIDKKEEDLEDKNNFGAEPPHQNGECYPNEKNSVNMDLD
UniProt P42224: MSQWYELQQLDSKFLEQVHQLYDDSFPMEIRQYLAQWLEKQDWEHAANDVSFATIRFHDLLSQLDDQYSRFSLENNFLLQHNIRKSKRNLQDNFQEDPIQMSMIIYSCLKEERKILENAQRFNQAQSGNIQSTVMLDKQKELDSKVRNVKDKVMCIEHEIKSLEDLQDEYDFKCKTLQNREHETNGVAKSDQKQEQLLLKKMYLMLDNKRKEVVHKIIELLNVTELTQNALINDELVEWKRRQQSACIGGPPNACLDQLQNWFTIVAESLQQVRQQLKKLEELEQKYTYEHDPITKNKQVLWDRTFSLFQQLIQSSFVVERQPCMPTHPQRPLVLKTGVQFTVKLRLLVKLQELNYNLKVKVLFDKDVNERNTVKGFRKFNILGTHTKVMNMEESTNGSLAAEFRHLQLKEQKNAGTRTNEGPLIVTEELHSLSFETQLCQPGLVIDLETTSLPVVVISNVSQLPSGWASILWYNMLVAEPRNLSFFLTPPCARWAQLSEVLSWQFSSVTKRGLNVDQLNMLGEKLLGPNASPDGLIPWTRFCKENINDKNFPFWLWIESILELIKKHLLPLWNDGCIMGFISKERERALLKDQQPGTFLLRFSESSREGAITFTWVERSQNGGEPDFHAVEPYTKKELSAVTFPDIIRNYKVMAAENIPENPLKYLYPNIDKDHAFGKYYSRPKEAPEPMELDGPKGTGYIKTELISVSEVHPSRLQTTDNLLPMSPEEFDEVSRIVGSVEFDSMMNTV
UniProt P07947: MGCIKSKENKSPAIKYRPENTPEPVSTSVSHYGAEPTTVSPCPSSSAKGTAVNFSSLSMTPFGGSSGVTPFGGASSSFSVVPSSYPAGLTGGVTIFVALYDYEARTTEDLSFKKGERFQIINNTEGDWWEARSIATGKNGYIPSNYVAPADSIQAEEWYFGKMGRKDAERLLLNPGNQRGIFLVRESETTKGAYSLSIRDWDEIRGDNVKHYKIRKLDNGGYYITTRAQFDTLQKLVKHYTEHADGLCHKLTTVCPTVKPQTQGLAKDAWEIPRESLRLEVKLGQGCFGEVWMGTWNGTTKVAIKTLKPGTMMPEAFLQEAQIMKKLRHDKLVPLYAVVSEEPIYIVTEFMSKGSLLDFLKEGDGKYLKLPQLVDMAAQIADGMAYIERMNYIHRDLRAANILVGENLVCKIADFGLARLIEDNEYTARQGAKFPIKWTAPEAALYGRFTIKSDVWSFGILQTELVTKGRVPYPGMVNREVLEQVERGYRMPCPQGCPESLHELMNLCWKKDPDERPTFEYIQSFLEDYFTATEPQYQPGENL
UniProt Q9UHD9: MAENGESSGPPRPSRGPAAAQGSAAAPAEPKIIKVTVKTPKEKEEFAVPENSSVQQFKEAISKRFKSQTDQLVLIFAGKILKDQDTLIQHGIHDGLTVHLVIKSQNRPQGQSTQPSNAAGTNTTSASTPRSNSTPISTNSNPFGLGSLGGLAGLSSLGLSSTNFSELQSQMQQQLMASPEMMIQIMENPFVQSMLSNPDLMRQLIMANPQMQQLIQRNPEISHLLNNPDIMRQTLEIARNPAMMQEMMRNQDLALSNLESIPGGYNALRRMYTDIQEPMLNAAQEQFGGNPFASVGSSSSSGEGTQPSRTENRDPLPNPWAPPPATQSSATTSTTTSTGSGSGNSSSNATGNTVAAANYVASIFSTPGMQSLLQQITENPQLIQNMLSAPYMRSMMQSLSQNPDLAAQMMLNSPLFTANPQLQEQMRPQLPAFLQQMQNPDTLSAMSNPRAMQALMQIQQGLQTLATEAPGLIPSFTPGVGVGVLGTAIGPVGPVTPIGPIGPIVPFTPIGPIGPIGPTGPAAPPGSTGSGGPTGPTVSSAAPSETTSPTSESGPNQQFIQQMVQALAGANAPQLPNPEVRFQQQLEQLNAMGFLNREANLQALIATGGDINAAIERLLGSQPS
UniProt P08670: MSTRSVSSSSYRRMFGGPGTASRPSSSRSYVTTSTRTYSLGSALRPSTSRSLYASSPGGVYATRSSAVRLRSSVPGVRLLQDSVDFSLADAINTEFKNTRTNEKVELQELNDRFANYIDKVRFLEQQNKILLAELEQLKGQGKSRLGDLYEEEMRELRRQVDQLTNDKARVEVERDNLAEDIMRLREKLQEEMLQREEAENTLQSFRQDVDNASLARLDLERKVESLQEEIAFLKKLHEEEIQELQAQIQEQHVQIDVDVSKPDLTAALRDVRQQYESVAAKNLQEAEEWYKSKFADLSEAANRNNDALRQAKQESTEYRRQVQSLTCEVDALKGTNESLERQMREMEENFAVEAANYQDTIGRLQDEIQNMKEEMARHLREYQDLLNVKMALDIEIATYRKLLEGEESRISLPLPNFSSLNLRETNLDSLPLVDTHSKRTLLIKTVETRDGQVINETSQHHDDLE

B1: BAG family molecular chaperone regulator 5 (protein, UniProt Q9UL15 1-447)
chain: MDMGNQHPSISRLQEIQKEVKSVEQQVIGFSGLSDDKNYKKLERILTKQLFEIDSVDTEGKGDIQQARKRAAQETERLLKELEQNANHPHRIEIQNIFEEAQSLVREKIVPFYNGGNCVTDEFEEGIQDIILRLTHVKTGGKISLRKARYHTLTKICAVQEIIEDCMKKQPSLPLSEDAHPSVAKINFVMCEVNKARGVLIALLMGVNNNETCRHLSCVLSGLIADLDALDVCGRTEIRNYRREVVEDINKLLKYLDLEEEADTTKAFDLRQNHSILKIEKVLKRMREIKNELLQAQNPSELYLSSKTELQGLIGQLDEVSLEKNPCIREARRRAVIEVQTLITYIDLKEALEKRKLFACEEHPSHKAVWNVLGNLSEIQGEVLSFDGNRTDKNYIRLEELLTKQLLALDAVDPQGEEKCKAARKQAVRLAQNILSYLDLKSDEWEY
B2: N-terminal kinase-like protein (protein, UniProt Q96KG9 1-808)
chain: MWFFARDPVRDFPFELIPEPPEGGLPGPWALHRGRKKATGSPVSIFVYDVKPGAEEQTQVAKAAFKRFKTLRHPNILAYIDGLETEKCLHVVTEAVTPLGIYLKARVEAGGLKELEISWGLHQIVKALSFLVNDCSLIHNNVCMAAVFVDRAGEWKLGGLDYMYSAQGNGGGPPRKGIPELEQYDPPELADSSGRVVREKWSADMWRLGCLIWEVFNGPLPRAAALRNPGKIPKTLVPHYCELVGANPKVRPNPARFLQNCRAPGGFMSNRFVETNLFLEEIQIKEPAEKQKFFQELSKSLDAFPEDFCRHKVLPQLLTAFEFGNAGAVVLTPLFKVGKFLSAEEYQQKIIPVVVKMFSSTDRAMRIRLLQQMEQFIQYLDEPTVNTQIFPHVVHGFLDTNPAIREQTVKSMLLLAPKLNEANLNVELMKHFARLQAKDEQGPIRCNTTVCLGKIGSYLSASTRHRVLTSAFSRATRDPFAPSRVAGVLGFAATHNLYSMNDCAQKILPVLCGLTVDPEKSVRDQAFKAIRSFLSKLESVSEDPTQLEEVEKDVHAASSPGMGGAAASWAGWAVTGVSSLTSKLIRSHPTTAPTETNIPQRPTPEGVPAPAPTPVPATPTTSGHWETQEEDKDTAEDSSTADRWDDEDWGSLEQEAESVLAQQDDWSTGGQVSRASQVSNSDHKSSKSPESDWSSWEAEGSWEQGWQEPSSQEPPPDGTRLASEYNWGGPESSDKGDPFATLSARPSTQPRPDSWGEDNWEGLETDSRQVKAELARKKREERRREMEAKRAERKVAKGPMKLGARKLD
B3: BAG4 (protein, UniProt O95429 1-457)
chain: MSALRRSGYGPSDGPSYGRYYGPGGGDVPVHPPPPLYPLRPEPPQPPISWRVRGGGPAETTWLGEGGGGDGYYPSGGAWPEPGRAGGSHQEQPPYPSYNSNYWNSTARSRAPYPSTYPVRPELQGQSLNSYTNGAYGPTYPPGPGANTASYSGAYYAPGYTQTSYSTEVPSTYRSSGNSPTPVSRWIYPQQDCQTEAPPLRGQVPGYPPSQNPGMTLPHYPYGDGNRSVPQSGPTVRPQEDAWASPGAYGMGGRYPWPSSAPSAPPGNLYMTESTSPWPSSGSPQSPPSPPVQQPKDSSYPYSQSDQSMNRHNFPCSVHQYESSGTVNNDDSDLLDSQVQYSAEPQLYGNATSDHPNNQDQSSSLPEECVPSDESTPPSIKKIIHVLEKVQYLEQEVEEFVGKKTDKAYWLLEEMLTKELLELDSVETGGQDSVRQARKEAVCKIQAILEKLEKKGL
B4: WDR11 (protein, UniProt Q9BZH6 1-1224)
chain: MLPYTVNFKVSARTLTGALNAHNKAAVDWGWQGLIAYGCHSLVVVIDSITAQTLQVLEKHKADVVKVKWARENYHHNIGSPYCLRLASADVNGKIIVWDVAAGVAQCEIQEHAKPIQDVQWLWNQDASRDLLLAIHPPNYIVLWNADTGTKLWKKSYADNILSFSFDPFDPSHLTLLTSEGIVFISDFSPSKPPSGPGKKVYISSPHSSPAHNKLATATGAKKALNKVKILITQEKPSAEFITLNDCLQLAYLPSKRNHMLLLYPREILILDLEVNQTVGVIAIERTGVPFLQVIPCFQRDGLFCLHENGCITLRVRRSYNNIFTTSNEEPDPDPVQELTYDLRSQCDAIRVTKTVRPFSMVCCPVNENAAALVVSDGRVMIWELKSAVCNRNSRNSSSGVSPLYSPVSFCGIPVGVLQNKLPDLSLDNMIGQSAIAGEEHPRGSILREVHLKFLLTGLLSGLPAPQFAIRMCPPLTTKNIKMYQPLLAVGTSNGSVLVYHLTSGLLHKELSIHSCEVKGIEWTSLTSFLSFATSTPNNMGLVRNELQLVDLPTGRSIAFRGERGNDESAIEMIKVSHLKQYLAVVFRDKPLELWDVRTCTLLREMSKNFPTITALEWSPSHNLKSLRKKQLATREAMARQTVVSDTELSIVESSVISLLQEAESKSELSQNISAREHFVFTDIDGQVYHLTVEGNSVKDSARIPPDGSMGSITCIAWKGDTLVLGDMDGNLNFWDLKGRVSRGIPTHRSWVRKIRFAPGKGNQKLIAMYNDGAEVWDTKEVQMVSSLRSGRNVTFRILDVDWCTSDKVILASDDGCIRVLEMSMKSACFRMDEQELTEPVWCPYLLVPRASLALKAFLLHQPWNGQYSLDISHVDYPENEEIKNLLQEQLNSLSNDIKKLLLDPEFTLLQRCLLVSRLYGDESELHFWTVAAHYLHSLSQEKSASTTAPKEAAPRDKLSNPLDICYDVLCENAYFQKFQLERVNLQEVKRSTYDHTRKCTDQLLLLGQTDRAVQLLLETSADNQHYYCDSLKACLVTTVTSSGPSQSTIKLVATNMIANGKLAEGVQLLCLIDKAADACRYLQTYGEWNRAAWLAKVRLNPEECADVLRRWVDHLCSPQVNQKSKALLVLLSLGCFFSVAETLHSMRYFDRAALFVEACLKYGAFEVTEDTEKLITAIYADYARSLKNLGFKQGAVLFASKAGAAGKDLLNELESPKEEPIEE
B5: motor protein KIF4B (protein, UniProt Q2VIQ3 1-1234)
chain: MKEEVKGIPVRVALRCRPLVPKEISEGCQMCLSFVPGETQVVVGTDKSFTYDFVFDPCTEQEEVFNKAVAPLIKGIFKGYNATVLAYGQTGSGKTYSMGGAYTAEQENEPTVGIIPRVIQLLFKEIDKKSDFEFTLKVSYLEIYNEEILDLLCPSREKAQINIREDPKEGIKIVGLTEKTVLVALDTVSCLEQGNNSRTVASTAMNSQSSRSHAIFTISIEQRKKSDKNCSFRSKLHLVDLAGSERQKKTKAEGDRLKEGININRGLLCLGNVISALGDDKKGSFVPYRDSKLTRLLQDSLGGNSHTLMIACVSPADSNLEETLSTLRYADRARKIKNKPIVNIDPHTAELNHLKQQVQQLQVLLLQAHGGTLPGSINAEPSENLQSLMEKNQSLVEENEKLSRCLSKAAGQTAQMLERIILTEQVNEKLNAKLEELRQHVACKLDLQKLVETLEDQELKENVEIICNLQQLITQLSDETVACTAAAIDTAVEEEAQVETSPETSRSSDAFTTQHALHQAQMSKEVVELNNALALKEALVRKMTQNDNQLQPIQFQYQDNIKNLELEVINLQKEKEELVRELQTAKKNVNQAKLSEHRHKLLQELEGQIADLKKKLNEQSKLLKLKESTERTVSKLNQEIWMMKNQRVQLMRQMKEDAEKFRQWKQKKDKEVIQLKERDRKRQYELLKLERNFQKQSSVLRRKTEEAAAANKRLKDALQKQREVTDKRKETQSHGKEGIAARVRNWLGNEIEVMVSTEEAKRHLNDLLEDRKILAQDVVQLKEKKESRENPPPKLRKCTFSLSEVHGQVLESEDCITKQIESLETEMELRSAQIADLQQKLLDAESEDRPKQCWENIATILEAKCALKYLIGELVSSKIHVTKLENSLRQSKASCADMQKMLFEEQNHFSEIETELQAELVRMEQQHQEKVLYLVSQLQESQMAEKQLEKSASEKEQQLVSTLQCQDEELEKMREVCEQNQQLLQENEIIKQKLILLQVASRQKHLPNDTLLSPDSSFEYIPPKPKPSRVKEKFLEQSMDIEDLKYCSEHSVNEHEDGDGDGDSDEGDDEEWKPTKLVKVSRKNIQGCSCKGWCGNKQCGCRKQKSDCGVDCSCDPTKCRNRQQGKDSLGTVEQTQDSEGSFKLEDPTEVTPGLSFFNPVCATPNSKILKEMCDMEQVLSKKTAPAPSPFDLPESKHGATEYQQNKPPGKKKKRALASNTSFFSGCSPIEEEAH
B6: ARCN1/COPD (protein, UniProt P48444 1-511)
chain: MVLLAAAVCTKAGKAIVSRQFVEMTRTRIEGLLAAFPKLMNTGKQHTFVETESVRYVYQPMEKLYMVLITTKNSNILEDLETLRLFSRVIPEYCRALEENEISEHCFDLIFAFDEIVALGYRENVNLAQIRTFTEMDSHEEKVFRAVRETQEREAKAEMRRKAKELQQARRDAERQGKKAPGFGGFGSSAVSGGSTAAMITETIIETDKPKVAPAPARPSGPSKALKLGAKGKEVDNFVDKLKSEGETIMSSSMGKRTSEATKMHAPPINMESVHMKIEEKITLTCGRDGGLQNMELHGMIMLRISDDKYGRIRLHVENEDKKGVQLQTHPNVDKKLFTAESLIGLKNPEKSFPVNSDVGVLKWRLQTTEESFIPLTINCWPSESGNGCDVNIEYELQEDNLELNDVVITIPLPSGVGAPVIGEIDGEYRHDSRRNTLEWCLPVIDAKNKSGSLEFSIAGQPNDFFPVQVSFVSKKNYCNIQVTKVTQVDGNSPVRFSTETTFLVDKYEIL

Molecular target: BAG3 (BCL-2-associated athanogene 3) (human (endogenous in HEK293T)) (UniProt O95817)
Test: affinity purification with mass spectrometry; endogenous BAG3 immunoprecipitated with anti-BAG3 antibody and Protein A/G magnetic beads from HEK293T lysate; cells treated with DMSO (basal) or 10 µM MG132 for 6 h; IgG IP (MG132_IgG) as control; label-free quantification, three biological replicates

binding, binds:
B1
B2
B3
B4
B5
B6

Molecular target: BAG3 (BCL-2-associated athanogene 3) (human (endogenous in HEK293T)) (UniProt O95817)
Test: as above
Remark: another data set of the same source

binding, binds:
importin subunit KPNA1 (from UniProt P52294 1-538)
multiubiquitin chain receptor RAD23B (from UniProt P54727 1-409)
nuclear factor NFκB subunit p65 (RELA) (from UniProt Q04206 1-551)
nucleotide-exchange factor HSPH1 (from UniProt Q92598 1-858)
signal transducer and transcription activator STAT1 (from UniProt P42224 1-750)
tumor suppressor protein p53 (TP53) (from UniProt P04637 1-393)
tyrosine-protein kinase YES1 (Yamaguchi Sarcoma viral oncogene homologue 1) (from UniProt P07947 1-543)
ubiquilin UBQLN2 (from UniProt Q9UHD9 1-624)
vimentin (from UniProt P08670 1-466)

Results are given in words; binding and its absence hold for the method and conditions named. Binding seen in cells or lysates may run through a third protein. Here binding means that the protein was enriched with, or labelled near, the bait; the list need not be complete.
